# Test results as given in the supplement of paper PMC3334620.
# The full ranking holds about 33,000 sequences; the median of “E-score (-0.5 to 0.5)” is about -0.016, and the highest 2% start at about 0.3. Some of the results follow.
# Molecular target: T1, Yer184c (UniProt P39961)
# T1 sequence: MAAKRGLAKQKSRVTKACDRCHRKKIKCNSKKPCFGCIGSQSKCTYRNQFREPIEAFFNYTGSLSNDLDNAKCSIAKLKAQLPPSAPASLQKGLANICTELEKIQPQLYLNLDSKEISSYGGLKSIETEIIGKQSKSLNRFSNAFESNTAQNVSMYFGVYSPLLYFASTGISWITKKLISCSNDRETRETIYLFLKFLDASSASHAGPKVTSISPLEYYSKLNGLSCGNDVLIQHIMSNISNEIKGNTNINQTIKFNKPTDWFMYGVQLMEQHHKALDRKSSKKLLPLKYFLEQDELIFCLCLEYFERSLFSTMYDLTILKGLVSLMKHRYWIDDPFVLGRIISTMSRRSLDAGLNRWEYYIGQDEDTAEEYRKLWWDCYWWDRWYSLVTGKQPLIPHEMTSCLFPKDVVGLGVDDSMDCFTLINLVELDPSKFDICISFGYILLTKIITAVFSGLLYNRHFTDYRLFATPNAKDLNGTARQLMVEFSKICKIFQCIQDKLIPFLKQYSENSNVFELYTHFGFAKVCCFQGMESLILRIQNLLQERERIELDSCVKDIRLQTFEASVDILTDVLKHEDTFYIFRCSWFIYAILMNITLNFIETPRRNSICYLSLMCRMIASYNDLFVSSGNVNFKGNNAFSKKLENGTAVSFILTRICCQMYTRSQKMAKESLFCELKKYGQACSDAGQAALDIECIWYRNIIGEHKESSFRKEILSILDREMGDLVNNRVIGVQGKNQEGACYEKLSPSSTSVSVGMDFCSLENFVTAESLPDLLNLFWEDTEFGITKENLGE
# Assay: PBM E-score (8-mer binding enrichment) (E-score (-0.5 to 0.5)); higher = stronger / more preferred TF binding
# Conditions: protein concentration: 100 nM; construct: GST-full length
# Protocol: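 Universal 'all 10-mer' protein binding microarrays (Agilent AMADID 015681) probed with GST-tagged S. cerevisiae TFs (full-length or DBD) made by in vitro transcription/translation (PURExpress), about 100-200 nM. Bound TF was detected with fluorescent anti-GST. Each ungapped 8-mer (which stands for itself and its reverse complement) is scored by the PBM enrichment score (E-score), a modified Wilcoxon-Mann-Whitney statistic from -0.5 to +0.5, computed with the Universal PBM Analysis Suite. Scale: above 0.35 generally sequence-specific binding.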
row,Sequence,PBM E-score
1,ACGATGTC,-0.0561
2,AACTGGCC,-0.0997
3,CCAAGATA,-0.0391
4,ACACCTAT,-0.124
5,TGTTAGAA,0.0199
6,GGTTTCAC,0.0748
7,GTAACTTA,0.11
8,GGCTGGGA,-0.129
9,GTATAAAA,0.325
10,GCCTCTCA,-0.0722
11,CATCCCGA,0.152
12,TCGTTAGA,0.00759
13,CTGTTGGC,-0.181
14,ACAACATG,0.00089
15,AGTTCTAT,-0.0389
16,ATGCGGAG,-0.178
17,ACGAGTGA,-0.0915
18,CGATACTC,-0.087
19,CCGTGAGG,-0.119
20,CCCAGGCA,-0.139
21,AACCTCTC,-0.274
22,AGACGTAC,0.0628
23,AACGGCCG,0.3
24,CAGAAGGG,-0.166
25,ACGCCACG,-0.133

# Some values from the results shown:
# For PBM E-score, ACGCCACG has -0.133
# For PBM E-score, CATCCCGA has 0.152
# For PBM E-score, AGTTCTAT has -0.0389
# For PBM E-score, GTAACTTA has 0.11

# Following part:

row,Sequence,PBM E-score
1,GACACACA,0.0256
2,ATCCGCCC,-0.114
3,CCGCCAGA,0.0573
4,AACACCTA,-0.173
5,CACGCAAC,0.17
6,ACGGTCAC,-0.119
7,CCCATGCC,-0.0347
8,CAGCAGCC,-0.134
9,CGTACCAC,-0.0819
10,GCTACCCC,-0.247
11,AGTGACCA,-0.113
12,GGCGCGAA,0.165
13,ATATATTA,0.25
14,GTGAACAC,0.00676
15,TCTTAGCA,-0.00501
16,AGTAAGTG,-0.0727
17,CGCGCGAC,0.0196
18,ACACTGTG,-0.0632
19,AAAGGGGA,-0.159
20,TCCGAACA,0.299
21,ACACGCAC,-0.157
22,CGTACGAC,-0.143
23,CAGATCAC,-0.0916
24,GGAGTCGA,-0.134
25,CGTAATTA,0.043

# Not a retest: an excerpt of the list.
row,Sequence,PBM E-score
10,GCTACCCC,-0.247
11,AGTGACCA,-0.113
12,GGCGCGAA,0.165
13,ATATATTA,0.25

# (further entries)

row,Sequence,PBM E-score
1,CGATGGAG,0.1
2,CGGCAGGC,0.165
3,AGGCAAGG,-0.328
4,ACATATAC,-0.0123
5,ACTGGGAT,-0.0341
6,ATGGACGG,0.128
7,CGGCGGGC,0.142
8,GGTAGTTA,-0.119
9,ACGCTGGG,-0.282
10,GTGATTCA,-0.131
11,ATGCGAGA,-0.0136
12,ACGACGCC,-0.156
13,CCGCTGCC,-0.104
14,CAAATACC,0.00872
15,CAGTCCGC,-0.0716
16,CACCGTGG,-0.222
17,AGCTAAAG,-0.0644
18,GGCTGCGA,-0.00955
19,CATCAAAG,-0.0488
20,AAACCTTA,0.0624
21,AAACTATA,0.0975
22,ACTACGTG,-0.343
23,GAGATCTC,0.051
24,ATCCTGTA,0.0808
25,AGCAAATG,-0.155

row,Sequence,PBM E-score
1,GGCATTAC,0.195
2,TAGAGACA,0.0376
3,ATCGTGAG,-0.0573
4,CGCGTCAA,-0.0817
5,ATACTAAA,0.239
6,AGCCAAAC,-0.0354
7,CGAATCTC,0.0585
8,CTGCGTCC,-0.147
9,CAATCGGG,0.0138
10,GGCTTTAA,0.138
11,ATGGTGGC,-0.362
12,GGAACGGA,0.246
13,AAAAGTGA,0.0899
14,GAGTCATA,-0.0293
15,ATATTTAC,0.202
16,CGCCTAGC,-0.33
17,GCACGCAA,-0.206
18,AGTAACAA,0.179
19,CGCCTACA,-0.216
20,CTACAGAG,0.0273
21,GGAATATA,0.227
22,TATGTAGA,0.00224
23,AGATGAGC,-0.012
24,CACGAGGA,-0.0877
25,CCGAGCTA,0.156

row,Sequence,PBM E-score
1,CATGCAAG,-0.197
2,AGGTTAGA,-0.138
3,AGTTCACA,0.0196
4,TCAATCAA,0.0772
5,CGTGCCTA,-0.265
6,CTCAGGCC,-0.206
7,ATCCCCCC,-0.411
8,CGTATATC,-0.0616
9,ACCGCAAC,0.131
10,CGCCAGGC,-0.0259
11,CTTTTCCA,-0.0613
12,ACTCCGCT,-0.179
13,AGTACTCG,0.154
14,AAGTGAAG,-0.191
15,AAACGGCT,0.0042
16,ATGGAGTG,-0.287
17,ACTATCAT,0.109
18,TAGGGGAA,-0.226
19,ACAGTCCC,-0.219
20,GCATGCAC,-0.0845
21,CCGAATCA,0.233
22,GCCATTAA,0.0964
23,GCGTTATA,-0.134
24,GACTCCCA,-0.249
25,TACGTGCA,-0.0962

row,Sequence,PBM E-score
1,CACATCAA,0.106
2,GACACGAA,-0.0596
3,GGGTCGTA,-0.106
4,CATGGGTC,-0.166
5,GAATCAAC,0.189
6,AGCTCTAG,-0.102
7,CCTTGAAG,-0.104
8,ACCCCATA,-0.0964
9,AGAAGGAT,-0.289
10,ATGGGCCC,-0.154
11,CAACGGAC,0.261
12,CTTCGTGC,0.0236
13,AGGGCGTC,-0.0854
14,TCCCGACA,0.00216
15,AGACTTCA,-0.141
16,AATAAGAA,0.252
17,AAAGAATA,0.0611
18,GTCCTCTA,-0.198
19,TAGCCTCA,-0.0571
20,GGCGACTA,-0.13
21,CTCAATCC,0.11
22,ACGCCAGC,-0.168
23,ATTTTACA,-0.13
24,CTCCCCTA,-0.121
25,CGCTTGCA,-0.0818

row,Sequence,PBM E-score
1,CGCCGCAG,-0.0397
2,AAAACACC,0.0588
3,ACGACAAA,0.252
4,CTTCAGCC,-0.0846
5,ACGTAGCG,-0.237
6,TACCACAA,0.168
7,AGCAGGCA,-0.248
8,TCCTAACA,0.0715
9,AGTCGATC,-0.085
10,AATTGGTA,0.00848
11,CCATTAGC,-0.16
12,GCTGTCTA,-0.0379
13,CGATTCAG,0.0265
14,CAAGGTCG,-0.272
15,AAGAGTCT,-0.24
16,CGAGTTAA,0.161
17,CACTGAAG,0.0984
18,CGGGCCTC,0.0573
19,ACCGAACC,0.0575
20,ATGCTAGA,-0.0395
21,GGCGTATA,-0.0214
22,AAGTTATA,0.232
23,ACGGAGAC,0.192
24,GCTAGCGA,-0.147
25,ACAAAGCG,0.0829

row,Sequence,PBM E-score
1,GATTAACA,0.2
2,ATGGATGG,-0.177
3,CGGCTCGA,0.291
4,ATTACCGG,0.22
5,TCTAGTAA,0.0542
6,CATCCTGG,-0.0767
7,ACAGCCGT,0.126
8,CGTAGGAA,-0.123
9,ATTAGCAG,-0.021
10,AGTTTCGA,-0.0388
11,CCATTGGC,-0.0903
12,AGACCTGG,-0.297
13,TCATTAGA,0.0435
14,TCGCGCCA,-0.0517
15,ATTACTAC,-0.0348
16,ATGCTTTC,0.0492
17,AAAAGAAG,0.148
18,GGTATTTA,0.0683
19,ACGGACCG,0.193
20,GAACTTGA,0.239
21,AGGTGGTG,-0.157
22,CTATAGAA,0.0508
23,GATGATCC,0.122
24,CTAACCGC,-0.0947
25,CCGGAGAG,0.187

row,Sequence,PBM E-score
1,ACTCGGGC,0.0253
2,ATTTCCCC,-0.166
3,GTTGTCGA,-0.0791
4,GATGCACA,-0.145
5,ATGATGTA,0.0881
6,AGCACATA,0.0135
7,ATAAGAAA,0.232
8,ACTAACCG,0.175
9,ACCCGAGT,0.0508
10,TACCTACA,0.0256
11,AACTTTCC,0.0363
12,TTATCGAA,0.175
13,CTAACTCC,-0.121
14,ATCGTAGA,-0.193
15,AACGAAAA,0.0387
16,AACGAGAA,0.0494
17,CTTACGTA,-0.0591
18,TAGTCGGA,0.212
19,GAACGAGC,0.0546
